According to patent US20240165250A1, “Bifunctional Folate Receptor Binding Compounds” (Lycia Therapeutics, Inc., priority 2021, published 2024):
For at least one compound, name, drawing or mass did not settle the structure.

Chains of the proteins cited; added tags and fusions are not shown. Residues count along the entry.
UniProt P01375, 88-233 limits assumed: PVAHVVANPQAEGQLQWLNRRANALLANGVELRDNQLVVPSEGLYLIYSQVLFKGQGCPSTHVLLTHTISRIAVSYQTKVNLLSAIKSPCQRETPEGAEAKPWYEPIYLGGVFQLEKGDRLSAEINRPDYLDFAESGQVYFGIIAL
UniProt P14207, 17-230 limits assumed: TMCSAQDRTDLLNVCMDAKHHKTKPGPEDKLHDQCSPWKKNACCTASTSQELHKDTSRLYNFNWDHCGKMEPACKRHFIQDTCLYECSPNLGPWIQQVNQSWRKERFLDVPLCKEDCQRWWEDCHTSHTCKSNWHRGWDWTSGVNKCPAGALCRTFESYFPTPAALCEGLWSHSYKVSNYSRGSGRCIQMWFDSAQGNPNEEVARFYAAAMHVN

Key:
[1] = target: T1, TNFα trimer (Homo sapiens, UniProt P01375); assay: SPR binding kinetics of compounds to TNFα trimer (single-cycle kinetics); conditions: for binding mode from SPR sensorgrams: FIGS. 2A-2C; for Stoichiometry: SPR, Rmax versus expected Rmax
T1 construct: Ligand MW (Da) 53729.8; fused on or other part: Three copies of soluble TNF-alpha joined by linkers into one polypeptide; The protein is biotinylated and captured on immobilised streptavidin
Procedure: Streptavidin 100 μg/mL Streptavidin (Invitrogen Cat #:434302) diluted in 10 mM sodium acetate, pH 4.5) was immobilized to both the reference and active surfaces as described in Example 51. The surfaces were conditioned with three injections of running Buffer (10 mM HEPES, 150 mM NaCl, 0.05% T20, pH 7.5, 2% DMSO) at a flow rate of 10 μL/min, Contact time: 60 s. Flow rate: 10 μL/min. The active surface was treated with biotinylated linked TNFα timer 20 μg/mL diluted in running buffer at a flow rate of 5 μL/min contact time: 600 s, yielding a final response of ˜3000 RU. Example compounds were then serially diluted 1:1 in running buffer (10 mM HEPES, 150 mM NaCl, 0.05% T20, pH 7.5, 2% DMSO) from 30 uM to 937.5 nM and flowed over the active and reference surfaces from lowest concentration to greatest concentration in the single-cycle kinetics format, and then allowed to dissociate in running buffer for 7200 s, at 30 μL/min. Sensorgrams were solvent corrected, double-referenced, and the data fitted and analyzed in Biacore Insight Evaluation Software Version 3.0.11.15423.

[2] = target: T2, FOLR2 (Homo sapiens, UniProt P14207); assay: SPR co-engagement of compound-TNFα trimer complex to folate receptor; format: binding; conditions: compound 10 nM preincubated with TNFα, FIGS. 3A-3B
T2 construct: purchased Acro Biosystems FO2-H5223-100 μg

[3] = target: T2, FOLR2; assay: SPR binding kinetics of compounds to folate receptor (FOLR2)
Procedure: A Biacore 8K+ was used to measure the association and dissociation rates of example compounds to FOLR2 (Acro Biosystems, Cat: FO2-H5223-100 μg). Briefly, FOLR2 was reconstituted according to the manufacture's instructions to 200 μg/mL. Both the active and reference surfaces of a Cytiva CM5 Series S Sensor Chip were activated with a 1:1 mixture of 400 mM EDC and 100 mM NHS for 420 s at 10 μL/min. 25 μg/mL FOLR2 diluted in Sodium Acetate pH 5.5 was injected on the active channel (Flow Cell 2) for 420 s at 10p/min. Both the reference and active surfaces were then capped with 1M ethanolamine, pH 8.5 for 420 s, achieving an immobilization level of ˜4200 RU. Example compounds were serially diluted 1:1 in running buffer (10 mM HEPES, 150 mM NaCl, 0.05% T20, pH 7.5, 2% DMSO) from 100 nM to 3.125 nM and flowed over the active and reference surfaces for 120 s, and then allowed to dissociate in running buffer for 600 s, at 30 uL/min. The FOLR2 immobilized active surface and the reference surface were regenerated with a 30 s pulse of Sodium Acetate pH 5.5 at 30 μL/min. Sensorgrams were solvent corrected, double-referenced, and the data fitted and analyzed in Biacore Insight Evaluation Software Version 3.0.11.15423.
FIG. 1 illustrates the SPR sensorgrams for various concentrations of compound I-21 (3.125 nM to 100 nM) to folate receptor 2 (FOLR2), illustrating 1:1 binding.

[4] = SPR single cycle kinetics, immobilized TNFα trimer

SMILES	binding mode from SPR sensorgrams [1]	kd [1, 4] [s⁻¹]	Stoichiometry [1]	Rmax [1, 4] [RU]	co-engagement of compound-TNFα trimer complex to folate receptor [2]	binding mode from SPR sensorgrams ([3]; FIG. 1, 3.125 nM to 100 nM)	Stoichiometry ([3]; SPR, Rmax versus expected Rmax)	Rmax ([3]; SPR, immobilized FOLR2 4213.2 RU) [RU]	kd ([3]; SPR, immobilized FOLR2, compound 3.125-100 nM) [s⁻¹]
Nc1nc(O)c2nc(CNc3ccc(C(=O)N[C@@H](CCC(=O)NCCOCCOCCOCCOCc4cn(CCCCCOc5ccc(-c6ccc7nc(COc8cccc(N9CCCC9=O)c8)n(Cc8ccccc8OC(F)F)c7c6)cn5)nn4)C(=O)O)cc3)cnc2n1 [Compound I-25, (S)-18-(4-(((2-amino-4-hydroxypteridin-6-yl)methyl)amino)benzamido)-1-(1-(5-((5-(1-(2-(difluoromethoxy)benzyl)-2-((3-(2-oxopyrrolidin-1-yl)phenoxy)methyl)-1H-benzo[d]imidazol-6-yl)pyridin-2-yl)oxy)pentyl)-1H-1,2,3-triazol-4-yl)-15-oxo-2,5,8,11-tetraoxa-14-azanonadecan-19-oic acid]	1:1 binding	3.65e-06	0.7	–	–	–	–	–	–
Cc1nc2cc(F)c(-c3cnc(OCCCCCn4cc(COCCOCCOCCOCCNC(=O)[C@H](CCC(=O)O)NC(=O)c5ccc(NCc6cnc7nc(N)nc(O)c7n6)cc5)nn4)nc3)nc2c(N[C@H](C)c2cc(C#N)ccc2F)c1Cl [Compound I-21, (S)-16-(4-(((2-amino-4-hydroxypteridin-6-yl)methyl)amino)benzamido)-1-(1-(5-((5-(7-chloro-8-(((R)-1-(5-cyano-2-fluorophenyl)ethyl)amino)-3-fluoro-6-methyl-1,5-naphthyridin-2-yl)pyrimidin-2-yl)oxy)pentyl)-1H-1,2,3-triazol-4-yl)-15-oxo-2,5,8,11-tetraoxa-14-azanonadecan-19-oic acid]	1:1 binding	7.75e-05	0.9	62.3	co-engagement	1:1 binding	0.9	147.5	0.00464
Cc1nc2cc(F)c(-c3cnc(OCCCCCn4cc(COCCOCCOCCOCCOCCOCCNC(=O)CC[C@H](NC(=O)c5ccc(NCc6cnc7nc(N)nc(O)c7n6)cc5)C(=O)O)nn4)nc3)nc2c(N[C@H](C)c2cc(C#N)ccc2F)c1Cl [Compound I-18, (S)-24-(4-(((2-amino-4-hydroxypteridin-6-yl)methyl)amino)benzamido)-1-(1-(5-((5-(7-chloro-8-(((R)-1-(5-cyano-2-fluorophenyl)ethyl)amino)-3-fluoro-6-methyl-1,5-naphthyridin-2-yl)pyrimidin-2-yl)oxy)pentyl)-1H-1,2,3-triazol-4-yl)-21-oxo-2,5,8,11,14,17-hexaoxa-20-azapentacosan-25-oic acid]	–	–	–	–	co-engagement	–	–	–	–
